# According to US20250283871A1, “COMPOSITIONS AND METHODS FOR MODULATING THE INTERACTION BETWEEN SS18-SSX FUSION ONCOPROTEIN AND NUCLEOSOMES” (Dana-Farber Cancer Institute, Inc., priority 2020, published 2025):
# Tested on: BAF complex subunits and histone proteins
# Experiment: Mass spectrometry proteomics of purified HA-SS18 WT and HA-SS18-SSX1 complexes (Tables 5A-5E)
# Parameters: species or system human
# Conditions: HEK-293T
# [1] = HA-SS18SSX1_CHR_peptides: protein identified in the HA-SS18-SSX1 purification from solubilized chromatin (CHR)
# [2] = HA-SS18SSX1 purification, NE (soluble nuclear extract) fraction, peptides per identified protein
# [3] = HA-SS18WT_CHR_peptides: HA-SS18 WT purification from nuclease-treated solubilized chromatin (CHR), label = protein identified
# [4] = HA-SS18WT_NE_peptides: proteins co-purified with HA-SS18 WT from nuclear extract (NE)
Molecule,Total (total peptides) [1],Unique (unique peptides) [1],Total (total peptides) [2],Unique (unique peptides) [2],Total (peptides) [3],Unique (peptides) [3],Total (peptides) [4],Unique (peptides) [4]
"KRR1 (protein, UniProt Q13601 2-381, looked up) KRR1 small subunit processome …: ASPSLERPEKGAGKSEFRNQKPKPENQDESELLTVPDGWKEPAFSKEDNPRGLLEESSFATLFPKYREAYLKECWPLVQKALNEHHVNATLDLIEGSMTVCTTKKTFDPYIIIRARDLIKLLARSVSFEQAVRILQDDVACDIIKIGSLVRNKERFVKRRQRLIGPKGSTLKALELLTNCYIMVQGNTVSAIGPFSGLKEVRKVVLDTMKNIHPIYNIKSLMIKRELAKDSELRSQSWERFLPQFKHKNVNKRKEPKKKTVKKEYTPFPPPQPESQIDKELASGEYFLKANQKKRQKMEAIKAKQAEAISKRQEERNKAFIPPKEKPIVKPKEASTETKIDVASIKEKVKKAKNKKLGALTAEEIALKMEADEKKKKKKK",10,9,4,4,14,11,1,1
"WDR75 (protein, UniProt Q8IWA0 1-830, looked up) WD repeat-containing protein …: MVEEENIRVVRCGGSELNFRRAVFSADSKYIFCVSGDFVKVYSTVTEECVHILHGHRNLVTGIQLNPNNHLQLYSCSLDGTIKLWDYIDGILIKTFIVGCKLHALFTLAQAEDSVFVIVNKEKPDIFQLVSVKLPKSSSQEVEAKELSFVLDYINQSPKCIAFGNEGVYVAAVREFYLSVYFFKKKTTSRFTLSSSRNKKHAKNNFTCVACHPTEDCIASGHMDGKIRLWRNFYDDKKYTYTCLHWHHDMVMDLAFSVTGTSLLSGGRESVLVEWRDATEKNKEFLPRLGATIEHISVSPAGDLFCTSHSDNKIIIIHRNLEASAVIQGLVKDRSIFTGLMIDPRTKALVLNGKPGHLQFYSLQSDKQLYNLDIIQQEYINDYGLIQIELTKAAFGCFGNWLATVEQRQEKETELELQMKLWMYNKKTQGFILNTKINMPHEDCITALCFCNAEKSEQPTLVTASKDGYFKVWILTDDSDIYKKAVGWTCDFVGSYHKYQATNCCFSEDGSLLAVSFEEIVTIWDSVTWELKCTFCQRAGKIRHLCFGRLTCSKYLLGATENGILCCWNLLSCALEWNAKLNVRVMEPDPNSENIAAISQSSVGSDLFVFKPSEPRPLYIQKGISREKVQWGVFVPRDVPESFTSEAYQWLNRSQFYFLTKSQSLLTFSTKSPEEKLTPTSKQLLAEESLPTTPFYFILGKHRQQQDEKLNETLENELVQLPLTENIPAISELLHTPAHVLPSAAFLCSMFVNSLLLSKETKSAKEIPEDVDMEEEKESEDSDEENDFTEKVQDTSNTGLGEDIIHQLSKSEEKELRKFRKIDYSWIAAL",10,10,–,–,7,7,–,–
"DDX18 (protein, UniProt Q9NVP1 1-670, looked up) ATP-dependent RNA helicase …: MSHLPMKLLRKKIEKRNLKLRQRNLKFQGASNLTLSETQNGDVSEETMGSRKVKKSKQKPMNVGLSETQNGGMSQEAVGNIKVTKSPQKSTVLTNGEAAMQSSNSESKKKKKKKRKMVNDAEPDTKKAKTENKGKSEEESAETTKETENNVEKPDNDEDESEVPSLPLGLTGAFEDTSFASLCNLVNENTLKAIKEMGFTNMTEIQHKSIRPLLEGRDLLAAAKTGSGKTLAFLIPAVELIVKLRFMPRNGTGVLILSPTRELAMQTFGVLKELMTHHVHTYGLIMGGSNRSAEAQKLGNGINIIVATPGRLLDHMQNTPGFMYKNLQCLVIDEADRILDVGFEEELKQIIKLLPTRRQTMLFSATQTRKVEDLARISLKKEPLYVGVDDDKANATVDGLEQGYVVCPSEKRFLLLFTFLKKNRKKKLMVFFSSCMSVKYHYELLNYIDLPVLAIHGKQKQNKRTTTFFQFCNADSGTLLCTDVAARGLDIPEVDWIVQYDPPDDPKEYIHRVGRTARGLNGRGHALLILRPEELGFLRYLKQSKVPLSEFDFSWSKISDIQSQLEKLIEKNYFLHKSAQEAYKSYIRAYDSHSLKQIFNVNNLNLPQVALSFGFKVPPFVDLNVNSNEGKQKKRGGGGGFGYQKTKKVEKSKIFKHISKKSSDSRQFSH",10,10,–,–,9,9,2,2
"ZMYM3 (protein, UniProt Q14202 1-1370, looked up) Zinc finger MYM-type protein 3: MDPSDFPSPFDPLTLPEKPLAGDLPVDMEFGEDLLESQTAPTRGWAPPGPSPSSGALDLLDTPAGLEKDPGVLDGATELLGLGGLLYKAPSPPEVDHGPEGTLAWDAGDQTLEPGPGGQTPEVVPPDPGAGANSCSPEGLLEPLAPDSPITLQSPHIEEEETTSIATARRGSPGQEEELPQGQPQSPNAPPSPSVGETLGDGINSSQTKPGGSSPPAHPSLPGDGLTAKASEKPPERKRSERVRRAEPPKPEVVDSTESIPVSDEDSDAMVDDPNDEDFVPFRPRRSPRMSLRSSVSQRAGRSAVGTKMTCAHCRTPLQKGQTAYQRKGLPQLFCSSSCLTTFSKKPSGKKTCTFCKKEIWNTKDSVVAQTGSGGSFHEFCTSVCLSLYEAQQQRPIPQSGDPADATRCSICQKTGEVLHEVSNGSVVHRLCSDSCFSKFRANKGLKTNCCDQCGAYIYTKTGSPGPELLFHEGQQKRFCNTTCLGAYKKKNTRVYPCVWCKTLCKNFEMLSHVDRNGKTSLFCSLCCTTSYKVKQAGLTGPPRPCSFCRRSLSDPCYYNKVDRTVYQFCSPSCWTKFQRTSPEGGIHLSCHYCHSLFSGKPEVLDWQDQVFQFCCRDCCEDFKRLRGVVSQCEHCRQEKLLHEKLRFSGVEKSFCSEGCVLLYKQDFTKKLGLCCITCTYCSQTCQRGVTEQLDGSTWDFCSEDCKSKYLLWYCKAARCHACKRQGKLLETIHWRGQIRHFCNQQCLLRFYSQQNQPNLDTQSGPESLLNSQSPESKPQTPSQTKVENSNTVRTPEENGNLGKIPVKTRSAPTAPTPPPPPPPATPRKNKAAMCKPLMQNRGVSCKVEMKSKGSQTEEWKPQVIVLPIPVPIFVPVPMHLYCQKVPVPFSMPIPVPVPMFLPTTLESTDKIVETIEELKVKIPSNPLEADILAMAEMIAEAEELDKASSDLCDLVSNQSAEGLLEDCDLFGPARDDVLAMAVKMANVLDEPGQDLEADFPKNPLDINPSVDFLFDCGLVGPEDVSTEQDLPRTMRKGQKRLVLSESCSRDSMSSQPSCTGLNYSYGVNAWKCWVQSKYANGETSKGDELRFGPKPMRIKEDILACSAAELNYGLAQFVREITRPNGERYEPDSIYYLCLGIQQYLLENNRMVNIFTDLYYLTFVQELNKSLSTWQPTLLPNNTVFSRVEEEHLWECKQLGVYSPFVLLNTLMFFNTKFFGLQTAEEHMQLSFTNVVRQSRKCTTPRGTTKVVSIRYYAPVRQRKGRDTGPGKRKREDEAPILEQRENRMNPLRCPVKFYEFYLSKCPESLRTRNDVFYLQPERSCIAESPLWYSVIPMDRSMLESMLNRILAVREIYEELGRPGEEDLD",10,9,–,–,6,6,–,–
"ATAD2B (protein, UniProt Q9ULI0 1-1458, looked up) ATPase family AAA …: MVNTRKSSLRLLGSKSPGPGPGPGAGAEPGATGGSSHFISSRTRSSKTRAASCPAAKAGGSGGAGVTLDEARKVEVDGSLSDSHVSPPAKRTLKQPDSVCKDKSKSRSTGQREEWNLSTGQARLTSQPGATLPNGHSGLSLRSHPLRGEKKGDGDLSCINGDMEVRKSCRSRKNRFESVNQSLLFDQLVNSTAEAVLQEMDNINIRRNRRSGEVERLRMWTDTEFENMDMYSRVKRRRKSLRRNSYGIQNHHEVSTEGEEEESQEEDGDIEVEEAEGEENDRPYNLRQRKTVDRYQAPPIVPAHQKKRENTLFDIHRSPARRSHIRRKKHAIHSSDTTSSDEERFERRKSKSMARARNRCLPMNFRAEDLASGILRERVKVGASLADVDPMNIDKSVRFDSIGGLSHHIHALKEMVVFPLLYPEIFEKFKIQPPRGCLFYGPPGTGKTLVARALANECSQGDKKVAFFMRKGADCLSKWVGESERQLRLLFDQAYLMRPSIIFFDEIDGLAPVRSSRQDQIHSSIVSTLLALMDGLDNRGEIVVIGATNRLDSIDPALRRPGRFDREFLFNLPDQKARKHILQIHTRDWNPKLSDAFLGELAEKCVGYCGADIKALCTEAALIALRRRYPQIYASSHKLQLDVSSIVLSAQDFYHAMQNIVPASQRAVMSSGHALSPIIRPLLERSFNNILAVLQKVFPHAEISQSDKKEDIETLILEDSEDENALSIFETNCHSGSPKKQSSSAAIHKPYLHFTMSPYHQPTSYRPRLLLSGERGSGQTSHLAPALLHTLERFSVHRLDLPALYSVSAKTPEESCAQIFREARRTVPSIVYMPHIGDWWEAVSETVRATFLTLLQDIPSFSPIFLLSTSETMYSELPEEVKCIFRIQYEEVLYIQRPIEEDRRKFFQELILNQASMAPPRRKHAALCAMEVLPLALPSPPRQLSESEKSRMEDQEENTLRELRLFLRDVTKRLATDKRFNIFSKPVDIEEVSDYLEVIKEPMDLSTVITKIDKHNYLTAKDFLKDIDLICSNALEYNPDKDPGDKIIRHRACTLKDTAHAIIAAELDPEFNKLCEEIKEARIKRGLSVTSEQINPHSTGARKTETRVEEAFRHKQRNPMDVWHNSANKCAFRVRRKSRRRSQWGKGIIKKRKVNNLKKDEEDTKFADYENHTEDRKLLENGEFEVSTDCHEENGEETGDLSMTNDESSCDIMDLDQGQRLNNGAGTKENFASTEEESSNESLLVNSSSSLNPEQTSRKETFLKGNCLNGEASTDSFEGIPVLECQNGKLEVVSFCDSGDKCSSEQKILLEDQSKEKPETSTENHGDDLEKLEALECSNNEKLEPGSDVEVKDAELDKEGASKVKKYRKLILEQAKTTSLELVPEEPSEPVPPLIVDRERLKKLLDLLVDKSNNLAVDQLERLYSLLSQCIYRHRKDYDKSQLVEEMERTVHMFETFL",10,10,–,–,13,11,–,–
